Measured values published in doi:10.1101/871640.
These are yes or no findings as the source states them, for the method shown. In cells and extracts the contact can be indirect. Some binding calls cover weakened binding; strength is not graded here. Tags and fused reporters may be left off the sequences shown.

By UniProt entry, the sequences of proteins in these tests, tags left out.
UniProt P31245: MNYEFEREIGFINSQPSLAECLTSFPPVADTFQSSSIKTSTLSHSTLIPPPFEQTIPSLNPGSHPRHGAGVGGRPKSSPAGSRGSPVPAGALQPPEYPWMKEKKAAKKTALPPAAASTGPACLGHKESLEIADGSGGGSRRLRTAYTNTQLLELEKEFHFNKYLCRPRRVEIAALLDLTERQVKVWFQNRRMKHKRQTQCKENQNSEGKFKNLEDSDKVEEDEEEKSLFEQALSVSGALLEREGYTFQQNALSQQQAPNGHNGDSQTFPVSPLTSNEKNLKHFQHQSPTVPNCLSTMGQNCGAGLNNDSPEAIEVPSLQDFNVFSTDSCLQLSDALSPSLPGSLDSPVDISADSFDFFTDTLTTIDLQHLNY
UniProt O43365: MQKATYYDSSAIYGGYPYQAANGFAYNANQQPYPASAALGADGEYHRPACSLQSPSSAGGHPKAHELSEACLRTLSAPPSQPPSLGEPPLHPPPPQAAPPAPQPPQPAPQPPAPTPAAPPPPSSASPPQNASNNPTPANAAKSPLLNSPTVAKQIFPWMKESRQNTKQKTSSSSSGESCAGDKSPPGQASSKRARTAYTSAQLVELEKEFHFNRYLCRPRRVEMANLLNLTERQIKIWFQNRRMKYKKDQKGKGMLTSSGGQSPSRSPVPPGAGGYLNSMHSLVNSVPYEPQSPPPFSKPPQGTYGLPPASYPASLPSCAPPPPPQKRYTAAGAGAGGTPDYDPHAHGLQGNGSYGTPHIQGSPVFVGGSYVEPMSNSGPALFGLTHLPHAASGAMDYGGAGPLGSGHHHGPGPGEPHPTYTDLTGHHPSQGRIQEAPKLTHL

Target: T1, GST-tagged MEIS1 (UniProt Q60954)
T1 sequence: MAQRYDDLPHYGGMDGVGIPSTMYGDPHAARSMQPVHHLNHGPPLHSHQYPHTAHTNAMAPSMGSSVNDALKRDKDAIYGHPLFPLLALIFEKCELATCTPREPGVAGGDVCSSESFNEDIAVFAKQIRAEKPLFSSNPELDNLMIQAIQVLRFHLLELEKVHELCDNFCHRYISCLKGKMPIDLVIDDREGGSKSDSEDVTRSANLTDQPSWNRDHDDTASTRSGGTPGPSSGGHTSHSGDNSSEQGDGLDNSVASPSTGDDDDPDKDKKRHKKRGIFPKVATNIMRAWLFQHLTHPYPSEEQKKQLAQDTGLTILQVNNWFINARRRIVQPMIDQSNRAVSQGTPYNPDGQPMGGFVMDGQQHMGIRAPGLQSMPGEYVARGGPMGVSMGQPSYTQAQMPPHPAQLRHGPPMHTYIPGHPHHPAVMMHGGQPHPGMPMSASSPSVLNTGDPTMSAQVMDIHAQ
Test: co-IP

FLAG-tagged HOXA2 (from UniProt P31245 1-372)
binding: binds

FLAG-tagged HOXA3 (from UniProt O43365 1-443)
binding: binds
